Test results as given in the supplement of paper PMC9233669.
This sample is rich in variants without activity.

Key:
[1] = test system: biotinyl-Ile-oxazolone; assay: self-aminoacylation, catalytic enhancement (BIO) (fold over background); higher = more active; k-Seq, kA / k0A0; sequences stand for … in GGGAAUGGAUCCACAUCUACGAAUUC…UUCACUGCAGACUUGACGAAGCUG
In short: (§1)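 Each biotinyl-aminoacyl-oxazolone, at 2–1250 μM, was incubated with mutagenized RNA pools (0.43 μM) carrying a 21-nt variable region. The 50 μL reactions contained HEPES/NaCl/KCl/MgCl2/CaCl2 buffer with 5% acetonitrile at pH 6.9–7.0 and ran for 90 minutes at room temperature. After streptavidin capture, RNA was measured by qPCR in triplicate and by Illumina sequencing, and catalytic enhancement was calculated as median kA over the uncatalyzed rate from a pseudo-first-order fit of per-sequence fraction reacted.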

[2] = test system: biotinyl-Val-oxazolone; assay: self-aminoacylation, catalytic enhancement (BVO) (fold over background); higher = more active; k-Seq, kA / k0A0; sequences stand for … in GGGAAUGGAUCCACAUCUACGAAUUC…UUCACUGCAGACUUGACGAAGCUG
In short: as §1

[3] = test system: biotinyl-Phe-oxazolone; assay: self-aminoacylation, catalytic enhancement (BFO) (fold over background); higher = more active; k-Seq, kA / k0A0; sequences stand for … in GGGAAUGGAUCCACAUCUACGAAUUC…UUCACUGCAGACUUGACGAAGCUG
In short: as §1

[4] = test system: biotinyl-Met-oxazolone; assay: self-aminoacylation, catalytic enhancement (BMO) (fold over background); higher = more active; k-Seq, kA / k0A0; sequences stand for … in GGGAAUGGAUCCACAUCUACGAAUUC…UUCACUGCAGACUUGACGAAGCUG
In short: as §1

[5] = test system: biotinyl-Leu-oxazolone; assay: self-aminoacylation, catalytic enhancement (BLO) (fold over background); higher = more active; k-Seq, kA / k0A0; sequences stand for … in GGGAAUGGAUCCACAUCUACGAAUUC…UUCACUGCAGACUUGACGAAGCUG
In short: as §1

[6] = test system: biotinyl-Trp-oxazolone; assay: self-aminoacylation, catalytic enhancement (BWO) (fold over background); higher = more active; k-Seq, kA / k0A0; sequences stand for … in GGGAAUGGAUCCACAUCUACGAAUUC…UUCACUGCAGACUUGACGAAGCUG
In short: as §1

Sequence | self-aminoacylation [1] | self-aminoacylation [2] | self-aminoacylation [3] | self-aminoacylation [4] | self-aminoacylation [5] | self-aminoacylation [6]
AGGUUUGCAAAUAGUCGCAAG [Fam3.1 aminoacylation ribozyme variant] | 1.16 | 1.18 | 1.6 | 1.19 | 1.01 | 0.996
AGGUUUGCUAAUAGUGGCAAG [Fam3.1 aminoacylation ribozyme variant] | 0.65 | 0.635 | 0.676 | 0.726 | 0.646 | 0.69
AGUACCCUGGUCAUCGAGGGA [Fam2.1 aminoacylation ribozyme variant] | 1.43 | 1.47 | 1.82 | 1.22 | 2.21 | 2.91
AGUACCCUGGUCAUUGAGUGA [Fam2.1 aminoacylation ribozyme variant] | 3.86 | 3.39 | 37.2 | 6.37 | 7.4 | 9.07
AGUCACCUAGGUCAGCGGGUG [Fam2.2 aminoacylation ribozyme variant] | 4.2 | 3.77 | 39.5 | 4.31 | 5.54 | 5.59
AGUCACCUAGGUCAUCGGAUG [Fam2.2 aminoacylation ribozyme variant] | 1.2 | 1.04 | 1.24 | 1.21 | 1.18 | 0.786
AGUUACCUAGGUCAUCGGGUG [Fam2.2 aminoacylation ribozyme variant] | 4.59 | 4.62 | 40.1 | 5.38 | 6.47 | 6.91
AUAACCCUGGUCAUCGACUGA [Fam2.1 aminoacylation ribozyme variant] | 0.884 | 0.858 | 0.517 | 0.892 | 0.806 | 0.396
AUACACCUAGGUCACCGGGUG [Fam2.2 aminoacylation ribozyme variant] | 3.29 | 3.23 | 23.3 | 3.09 | 3.78 | 3.79
AUACACCUAGGUCAUAGGGUG [Fam2.2 aminoacylation ribozyme variant] | 1.35 | 1.43 | 3.76 | 1.23 | 1.36 | 2.14
AUACACCUAGGUGAUCGGGUG [Fam2.2 aminoacylation ribozyme variant] | 3.87 | 2.6 | 16.4 | 3.56 | 3.88 | 4.59
AUACUACAAACAAUCGGUCUG [Fam1A.1 aminoacylation ribozyme variant] | 0.764 | 0.886 | 1.36 | 0.818 | 0.652 | 0.838
AUACUUAAAACAAUCGGUCUG [Fam1A.1 aminoacylation ribozyme variant] | 0.886 | 0.883 | 0.784 | 0.922 | 0.713 | 0.726
AUACUUCAAACAAACGGUCUG [Fam1A.1 aminoacylation ribozyme variant] | 0.975 | 0.986 | 0.966 | 0.852 | 0.832 | 0.89
AUACUUCAAACAAUCGGUCAG [Fam1A.1 aminoacylation ribozyme variant] | 0.82 | 0.891 | 3.2 | 0.672 | 0.728 | 1.88
AUACUUCAAACAAUCGGUCUC [Fam1A.1 aminoacylation ribozyme variant] | 0.823 | 0.787 | 13.5 | 0.754 | 0.789 | 7.89
AUACUUCAAACUAUCGGUCUG [Fam1A.1 aminoacylation ribozyme variant] | 1.02 | 0.964 | 1.01 | 0.873 | 0.93 | 0.924
AUACUUCUAACAAUCGGUCUG [Fam1A.1 aminoacylation ribozyme variant] | 1.04 | 0.967 | 1.06 | 0.968 | 0.922 | 0.961
AUCACCCUGGUCAUCGCGUGA [Fam2.1 aminoacylation ribozyme variant] | 12.1 | 17.1 | 215 | 33.9 | 36.4 | 33.8
AUCCACCUAGAUCAUCGGGUG [Fam2.2 aminoacylation ribozyme variant] | 3.37 | 3.26 | 23.2 | 3.25 | 4.88 | 4.45
AUCUACCUAGGUCAUCGGGUG [Fam2.2 aminoacylation ribozyme variant] | 6.54 | 6.18 | 51.1 | 10 | 12.1 | 8.66
AUGCACCAAGGUCAUCGGGUG [Fam2.2 aminoacylation ribozyme variant] | 4.95 | 5.23 | 59.9 | 7.84 | 9.2 | 9.96
AUGCACCUAGGUCAUCGGGUU [Fam2.2 aminoacylation ribozyme variant] | 3.66 | 3.24 | 5.22 | 4.43 | 4.54 | 4.05
AUGCAUCUAGGUCAUCGGGUG [Fam2.2 aminoacylation ribozyme variant] | 5.83 | 5.41 | 57 | 8.33 | 9.38 | 9.62
AUGUUGGCUAAUAGUCGCAAG [Fam3.1 aminoacylation ribozyme variant] | 1.47 | 1.29 | 1.85 | 1.5 | 1.3 | 1.12
AUGUUUGCAAAUAGUCGCAAG [Fam3.1 aminoacylation ribozyme variant] | 1.55 | 1.28 | 1.07 | 1.47 | 1.2 | 1.03

Sequence | self-aminoacylation [1] | self-aminoacylation [2] | self-aminoacylation [3] | self-aminoacylation [4] | self-aminoacylation [5] | self-aminoacylation [6]
AUGUUUGCGAAUAGUCGCAAG [Fam3.1 aminoacylation ribozyme variant] | 1.35 | 1.6 | 2.47 | 1.46 | 1.29 | 1.92
AUUAACCUGGUCAUCGAGUAA [Fam2.1 aminoacylation ribozyme variant] | 0.983 | 1.09 | 1.05 | 0.99 | 1.08 | 1.02
AUUAACCUGGUCAUCGAGUGA [Fam2.1 aminoacylation ribozyme variant] | 3.97 | 4.02 | 8.46 | 7.3 | 7.64 | 8.57
AUUAACCUGGUCGUCGAGUGA [Fam2.1 aminoacylation ribozyme variant] | 0.891 | 0.901 | 0.504 | 1.2 | 0.886 | 0.565
AUUACCAUGGUCAUCGAUUGA [Fam2.1 aminoacylation ribozyme variant] | 0.838 | 1 | 0.561 | 0.928 | 0.956 | 1.07
AUUACCCCGGUCAUCAAGUGA [Fam2.1 aminoacylation ribozyme variant] | 1.16 | 1.04 | 1.75 | 1.3 | 1.45 | 1.52
AUUACCCCGGUCAUCGAAUGA [Fam2.1 aminoacylation ribozyme variant] | 0.916 | 1.09 | 0.837 | 0.762 | 0.683 | 0.62
AUUACCCCGGUCAUCGAUUGA [Fam2.1 aminoacylation ribozyme variant] | 0.968 | 0.907 | 1.15 | 0.575 | 0.553 | 1.16
AUUACCCUAGUCAUCGAGGGA [Fam2.1 aminoacylation ribozyme variant] | 1.34 | 1.31 | 0.669 | 1.78 | 1.78 | 1.83
AUUACCCUAGUCAUCGAGUGG [Fam2.1 aminoacylation ribozyme variant] | 1.29 | 1.41 | 1.44 | 1.83 | 1.76 | 1.07
AUUACCCUCGUCAUCGAGAGA [Fam2.1 aminoacylation ribozyme variant] | 0.769 | 0.864 | 0.86 | 1.01 | 0.746 | 0.469
AUUACCCUGAUCAUCCAGUGA [Fam2.1 aminoacylation ribozyme variant] | 2.91 | 3.49 | 16.9 | 5.79 | 5.22 | 7.09
AUUACCCUGAUCAUCGAGCGA [Fam2.1 aminoacylation ribozyme variant] | 1.48 | 1.32 | 0.755 | 1.44 | 1.61 | 1.98
AUUACCCUGAUCAUCGAGUGA [Fam2.1 aminoacylation ribozyme variant] | 3.8 | 4.15 | 21.8 | 7.96 | 7.82 | 9.57
AUUACCCUGAUCAUCGAGUGC [Fam2.1 aminoacylation ribozyme variant] | 0.731 | 0.837 | 0.751 | 0.864 | 0.904 | 0.799
AUUACCCUGAUCAUCGAGUGU [Fam2.1 aminoacylation ribozyme variant] | 1.81 | 2.24 | 5.33 | 4.23 | 3.28 | 5.04
AUUACCCUGAUCAUCGAUUGA [Fam2.1 aminoacylation ribozyme variant] | 0.958 | 1.02 | 0.675 | 0.925 | 0.901 | 0.45
AUUACCCUGAUCCUCGAGUGA [Fam2.1 aminoacylation ribozyme variant] | 2.35 | 2.52 | 8.63 | 3.7 | 3.73 | 3.91
AUUACCCUGCUCAUCGAGUGG [Fam2.1 aminoacylation ribozyme variant] | 0.831 | 0.81 | 0.52 | 1 | 1.09 | 0.578
AUUACCCUGGACAUCGAGAGA [Fam2.1 aminoacylation ribozyme variant] | 0.961 | 0.86 | 0.444 | 0.429 | 0.882 | 1.19
AUUACCCUGGCAAUCGAGUGA [Fam2.1 aminoacylation ribozyme variant] | 2.78 | 3.02 | 28.2 | 4.83 | 5.38 | 5.92
AUUACCCUGGCGAUCGAGUGA [Fam2.1 aminoacylation ribozyme variant] | 2.12 | 2.69 | 24.3 | 4.06 | 4.77 | 4.59
AUUACCCUGGGCAUCGACUGA [Fam2.1 aminoacylation ribozyme variant] | 0.657 | 0.685 | 0.576 | 0.578 | 0.443 | 0.53
AUUACCCUGGUCAUCAAGUGG [Fam2.1 aminoacylation ribozyme variant] | 0.833 | 0.848 | 0.944 | 0.856 | 0.864 | 0.439
AUUACCCUGGUCAUCGAAAGA [Fam2.1 aminoacylation ribozyme variant] | 0.788 | 0.8 | 0.407 | 0.719 | 0.733 | 0.327
